Experiment [1] concerns the target human BMP6 (Peprotech), reduced monomer on SDS-PAGE (human) (UniProt P22004). The experiment in a line: Western blot after reducing SDS-PAGE. (In western blotting, separated proteins are transferred to a membrane and probed.)
Experiment [2] deals with T1, BMP6 peptide motif … (human).
T1 sequence (peptide): TLVHLMNPEYV
The experiment in a line: linear peptide microarray, 15-mers overlapping by 14.

Amino acid sequences for entries named in this document (tags omitted). A change or cut given only in a name is not applied to a line headed by its entry.
UniProt P22004: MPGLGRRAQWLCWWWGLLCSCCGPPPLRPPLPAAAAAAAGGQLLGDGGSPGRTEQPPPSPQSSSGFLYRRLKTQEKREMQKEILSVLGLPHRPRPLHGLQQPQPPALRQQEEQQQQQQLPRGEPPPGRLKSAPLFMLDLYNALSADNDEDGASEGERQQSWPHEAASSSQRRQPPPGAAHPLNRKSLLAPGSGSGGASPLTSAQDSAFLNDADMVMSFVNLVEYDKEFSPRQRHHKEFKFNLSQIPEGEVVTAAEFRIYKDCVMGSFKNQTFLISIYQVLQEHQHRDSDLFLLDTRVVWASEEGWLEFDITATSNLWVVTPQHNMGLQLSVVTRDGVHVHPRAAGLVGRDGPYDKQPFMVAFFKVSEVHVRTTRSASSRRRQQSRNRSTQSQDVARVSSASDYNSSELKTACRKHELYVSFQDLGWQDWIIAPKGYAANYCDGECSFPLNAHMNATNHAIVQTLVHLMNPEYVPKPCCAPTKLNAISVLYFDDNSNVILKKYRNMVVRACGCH

Experiment [3] deals with recombinant human BMP6 (Peprotech 120-06) (human) (UniProt P22004). The experiment in a line: Western blot after non-reducing SDS-PAGE.
Experiment [4] concerns the target T2, BMP6 peptide motif HLMNPEY (human).
T2 sequence (peptide): HLMNPEY
As to the kind of experiment: linear peptide microarray, 15-mers overlapping by 14.

Two molecules from patent US20220073598A1 (KYMAB, published 2022) can be followed below.

Results are given in words; binding and its absence hold for the method and conditions named. Some results given as binding are weak or reduced against the parent protein; the word gives no strength.

B1: Antibody A (antibody, human IgG4 S228P, kappa, V domains shown)
VH: QVQLVQSGAEVKKPGSSVKVSCKASGYTFTSYAMHWVRQAPGQGLEWMGYINPYNDGTKYNENFKGRVTITADESTSTAYMELSSLRSEDTAVYYCARRPFGNAMDIWGQGTLVTVSS
VL: DIQMTQSPSSLSASVGDRVTITCRSSENIYRNLAWYQQKPGKAPKLLIYAATNLADGVPSRFSGSGSGTDFTLTISSLQPEDFATYYCQGIWGTPLTFGGGTKVEIKR
On to B1, for which the binding result in experiment [1], in experiment [2] and in experiment [3] was “binds” in each case.

B2: Antibody B (antibody, human IgG1, lambda, V domains shown)
VH: QVQLVESGGGLVKPGGSLRLSCAASGFTFSSYVVHWVRQAPGKGLEWVGRIRLETHGYAAEYAASVKGRFTISRDDSKNTLYLQMNSLKTEDTAVYYCARVERSKSGFDNWGQGTLVTVSS
VL: QSVLTQPPSVSGAPGQRVTISCTGSSSNIGAGYSVHWYQQLPGTAPKLLIYGQSERPSGVPDRFSGSKSGTSASLAITGLQAEDEADYYCQSWDSSQTLVVFGGGTKLTVLG
notes: also called anti-BMP6 Antibody B
With B2, the binding entry in experiment [4] is recorded as “binds”.
